doi:10.1101/2023.12.22.573068
Read-outs that look alike come from different tables or passages of the source. Results are given in words; binding and its absence hold for the method and conditions named. Binding calls can cover weak binding; strength is not graded here. Tags and fused reporters may be left off the sequences shown. For part of these data: In cells and extracts the contact can be indirect. Each block holds one binder with its values, some of them ahead of it.

Legend:
[1] = target: tubulin from goat brain (microtubules) (goat); assay: co-sedimentation
[2] = target: tubulin from goat brain (microtubules) (goat); assay: co-sedimentation; remark: listed apart in the source

binding [1]: binds
B1: EB1 (endogenous, goat brain) (protein, UniProt A0A452FST7 1-268)
chain: MAVNVYSTSVTSDNLSRHDMLAWINESLQLNLTKIEQLCSGAAYCQFMDMLFPGSIALKKVKFQAKLEHEYIQNFKILQAGFKRMGVDKIIPVDKLVKGKFQDNFEFVQWFKKFFDANYDGKEYDPVAARQGQETAVAPSLVAPALNKPKKPLSSSSAAPQRPIATHRTTATPKAGPGVVRKNPGVGNGDDEAAELMQQVNVLKLTVEDLEKERDFYFGKLRNIELICQENEGENNPVLQRIVDILYATDEGFVIPDEGGPQEEQEEY

binding [2]: binds
binding [1]: binds
B2: recombinant full-length human CEP41 (his-tag cleaved) (protein, UniProt Q9BYV8-1 1-373)
chain: MSLRRHIGNPEYLMKRIPQNPRYQHIKSRLDTGNSMTKYTEKLEEIKKNYRYKKDELFKRLKVTTFAQLIIQVASLSDQTLEVTAEEIQRLEDNDSAASDPDAETTARTNGKGNPGEQSPSPEQFINNAGAGDSSRSTLQSVISGVGELDLDKGPVKKAEPHTKDKPYPDCPFLLLDVRDRDSYQQCHIVGAYSYPIATLSRTMNPYSNDILEYKNAHGKIIILYDDDERLASQAATTMCERGFENLFMLSGGLKVLAQKFPEGLITGSLPASCQQALPPGSARKRSSPKGPPLPAENKWRFTPEDLKKIEYYLEEEQGPADHPSRLNQANSSGRESKVPGARSAQNLPGGGPASHSNPRSLSSGHLQGKPWK
